Drawing on publication PMC9284800, this text covers binding for one substance.

Amino acid sequences for entries named in this document (tags omitted).
UniProt P17676: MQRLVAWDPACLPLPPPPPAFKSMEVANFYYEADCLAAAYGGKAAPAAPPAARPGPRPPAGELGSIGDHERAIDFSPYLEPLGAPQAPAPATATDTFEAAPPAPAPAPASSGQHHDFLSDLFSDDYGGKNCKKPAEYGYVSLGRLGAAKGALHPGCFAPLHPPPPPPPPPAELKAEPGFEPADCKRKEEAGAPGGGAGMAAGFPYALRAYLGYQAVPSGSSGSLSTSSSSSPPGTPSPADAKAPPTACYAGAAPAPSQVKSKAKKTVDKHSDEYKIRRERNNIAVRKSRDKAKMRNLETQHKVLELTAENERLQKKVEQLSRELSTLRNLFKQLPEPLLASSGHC
UniProt Q00987: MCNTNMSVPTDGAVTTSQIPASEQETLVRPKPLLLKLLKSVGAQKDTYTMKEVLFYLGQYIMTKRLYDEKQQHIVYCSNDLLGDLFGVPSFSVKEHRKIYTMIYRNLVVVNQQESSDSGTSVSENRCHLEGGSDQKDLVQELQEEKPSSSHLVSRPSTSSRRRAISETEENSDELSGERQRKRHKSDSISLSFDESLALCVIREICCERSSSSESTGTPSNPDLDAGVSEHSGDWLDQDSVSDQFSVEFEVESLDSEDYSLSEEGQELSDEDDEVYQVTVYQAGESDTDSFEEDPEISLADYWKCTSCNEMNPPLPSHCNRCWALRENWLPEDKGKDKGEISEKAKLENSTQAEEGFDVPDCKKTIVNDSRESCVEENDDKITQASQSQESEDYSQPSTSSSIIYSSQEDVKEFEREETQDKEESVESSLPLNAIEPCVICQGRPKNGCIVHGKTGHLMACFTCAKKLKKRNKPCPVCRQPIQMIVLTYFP

The target in this test is CCAAT/enhancer binding protein (C/EBP), beta (human (endogenous in GSC267)) (UniProt P17676). Description: co-IP; lysates of GSC267 cells transfected with PDIA3P1 or shPDIA3P1; antibody coupled to protein A/G magnetic beads (Pierce Classic Magnetic IP/Co-IP Kit), western blot; which antibody precipitated is not told.

No constants are given. Whether binding was seen depends on the method and setting. Binding seen in cells or lysates may run through a third protein. Some results given as binding are weak or reduced against the parent protein; the word gives no strength.

Turning to “mouse double minute 2 homolog (MDM2) (from UniProt Q00987 1-491)”, the binding entry was “binds”.
